Test results reported in publication doi:10.1101/2022.12.18.520920.
Results are given in words; binding and its absence hold for the method and conditions named. Binding seen in cells or lysates may run through a third protein. Some results given as binding are weak or reduced against the parent protein; the word gives no strength. For part of these data: Where a sequence is shown, tags or fusion partners need not be part of it. Blank lines part the entries; values can stand above or below the binder they belong to.

Experiments:
[1] = target: T1, Venus-N:AtHB23 (Arabidopsis thaliana) (UniProt Q8LFD3); experiment: split reporter
T1 sequence: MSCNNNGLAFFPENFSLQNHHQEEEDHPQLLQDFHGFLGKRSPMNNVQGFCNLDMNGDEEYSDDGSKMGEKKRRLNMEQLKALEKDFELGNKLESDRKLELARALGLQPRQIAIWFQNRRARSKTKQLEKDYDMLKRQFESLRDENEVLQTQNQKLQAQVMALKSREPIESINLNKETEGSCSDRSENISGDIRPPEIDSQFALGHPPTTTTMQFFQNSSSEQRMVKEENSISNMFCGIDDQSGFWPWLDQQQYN

[2] = target: T2, Venus-C:AtHB23 (Arabidopsis thaliana) (UniProt Q8LFD3); experiment: split reporter
T2 sequence: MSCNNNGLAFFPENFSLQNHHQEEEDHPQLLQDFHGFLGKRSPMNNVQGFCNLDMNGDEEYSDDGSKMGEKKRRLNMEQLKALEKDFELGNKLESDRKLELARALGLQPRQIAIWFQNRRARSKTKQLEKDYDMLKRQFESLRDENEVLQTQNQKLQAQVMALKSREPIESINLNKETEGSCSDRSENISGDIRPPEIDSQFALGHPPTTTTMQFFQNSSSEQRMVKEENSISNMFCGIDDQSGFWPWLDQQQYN

[3] = target: T3, Myc-AtHB23 (Arabidopsis thaliana) (UniProt Q8LFD3); experiment: co-IP
T3 sequence: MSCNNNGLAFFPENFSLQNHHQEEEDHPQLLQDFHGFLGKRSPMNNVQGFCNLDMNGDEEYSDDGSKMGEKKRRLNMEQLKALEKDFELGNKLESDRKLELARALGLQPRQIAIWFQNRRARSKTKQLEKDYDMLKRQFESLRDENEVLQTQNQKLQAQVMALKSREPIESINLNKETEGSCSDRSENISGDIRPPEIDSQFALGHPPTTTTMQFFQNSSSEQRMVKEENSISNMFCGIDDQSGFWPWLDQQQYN

binding [1]: binds
B1: Venus-C:AtPHL1 (protein, UniProt Q8GUN5 1-413)
chain: MTLANDFGYSTAMSSSYSALHTSVEDRYHKLPNSFWVSSGQELMNNPVPCQSVSGGNSGGYLFPSSSGYCNVSAVLPHGRNLQNQPPVSTVPRDRLAMQDCPLIAQSSLINHHPQEFIDPLHEFFDFSDHVPVQNLQAESSGVRVDSSVELHKKSEWQDWADQLISVDDGSEPNWSELLGDSSSHNPNSEIPTPFLDVPRLDITANQQQQMVSSEDQLSGRNSSSSVATSKQRMRWTPELHEAFVEAVNQLGGSERATPKAVLKLLNNPGLTIYHVKSHLQKYRTARYKPETSEVTGEPQEKKMTSIEDIKSLDMKTSVEITQALRLQMEVQKRLHEQLEIQRSLQLQIEKQGRYLQMMFEKQQKIQDNKSSSSEASPKQCNGSFAEVEVGLETLTGDQNESASASRKRVRED

binding [2]: binds
B2: Venus-N:PHL1 (protein, UniProt Q8GUN5 1-413)
chain: MTLANDFGYSTAMSSSYSALHTSVEDRYHKLPNSFWVSSGQELMNNPVPCQSVSGGNSGGYLFPSSSGYCNVSAVLPHGRNLQNQPPVSTVPRDRLAMQDCPLIAQSSLINHHPQEFIDPLHEFFDFSDHVPVQNLQAESSGVRVDSSVELHKKSEWQDWADQLISVDDGSEPNWSELLGDSSSHNPNSEIPTPFLDVPRLDITANQQQQMVSSEDQLSGRNSSSSVATSKQRMRWTPELHEAFVEAVNQLGGSERATPKAVLKLLNNPGLTIYHVKSHLQKYRTARYKPETSEVTGEPQEKKMTSIEDIKSLDMKTSVEITQALRLQMEVQKRLHEQLEIQRSLQLQIEKQGRYLQMMFEKQQKIQDNKSSSSEASPKQCNGSFAEVEVGLETLTGDQNESASASRKRVRED

B3: HA-AtPHL1 (protein, UniProt Q8GUN5 1-413)
chain: MTLANDFGYSTAMSSSYSALHTSVEDRYHKLPNSFWVSSGQELMNNPVPCQSVSGGNSGGYLFPSSSGYCNVSAVLPHGRNLQNQPPVSTVPRDRLAMQDCPLIAQSSLINHHPQEFIDPLHEFFDFSDHVPVQNLQAESSGVRVDSSVELHKKSEWQDWADQLISVDDGSEPNWSELLGDSSSHNPNSEIPTPFLDVPRLDITANQQQQMVSSEDQLSGRNSSSSVATSKQRMRWTPELHEAFVEAVNQLGGSERATPKAVLKLLNNPGLTIYHVKSHLQKYRTARYKPETSEVTGEPQEKKMTSIEDIKSLDMKTSVEITQALRLQMEVQKRLHEQLEIQRSLQLQIEKQGRYLQMMFEKQQKIQDNKSSSSEASPKQCNGSFAEVEVGLETLTGDQNESASASRKRVRED
binding [3]: binds
